Test results taken from publication PMC4792965.
No constants are given. Whether binding was seen depends on the method and setting. Where a sequence is shown, tags or fusion partners need not be part of it.

Target: PatA (Phosphatidyl-myo-inositol mannosides AcylTransferase A) from Mycobacterium smegmatis, truncated version lacking the first 12 residues (Mycobacterium smegmatis) (UniProt A0QWG5)
Test: crystal structure; three crystal forms of PatA with bound palmitate (C2, P21, P42212; two, four and one molecules in the asymmetric unit); inspection of the crystal structures; both purified

binding: no binding
B1: PatA (Phosphatidyl-myo-inositol mannosides AcylTransferase A) from Mycobacterium smegmatis, truncated version lacking the first 12 residues (enzyme, UniProt A0QWG5 13-304)
chain: VTDLGYAAGWRLVRAMPEAMAQGVFGAGARYAARNGGPEQLRRNLARVVGKPPADVPDDLIRASLASYARYWREAFRLPAMDHGRLGEQLDVIDIDHLWSALDAGRGAVLALPHSGNWDMAGVWLVQNYGPFTTVAERLKPESLYRRFVEYRESLGFEVLPLTGGERPPFEVLAERLTDNRPICLMAERDLTRSGVQVDFFGEATRMPAGPAKLAIETGAALFPVHCWFEGDGWGMRVYPELDTSSGDVTAITQALADRFAANIATYPADWHMLQPQWIADLSDERRARLGT
